From article PMC8986318 come the findings set out here.

Chains of the proteins cited; added tags and fusions are not shown. Lines headed by an entry give the natural chain unless they say otherwise; changes in a name come on top. Residues count along the entry.
UniProt P31431, residues 19-198: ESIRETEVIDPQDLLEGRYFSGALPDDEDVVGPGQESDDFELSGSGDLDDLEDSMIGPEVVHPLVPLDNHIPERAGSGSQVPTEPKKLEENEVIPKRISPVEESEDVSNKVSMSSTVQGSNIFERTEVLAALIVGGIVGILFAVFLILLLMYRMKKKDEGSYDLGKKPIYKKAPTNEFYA
UniProt P09038: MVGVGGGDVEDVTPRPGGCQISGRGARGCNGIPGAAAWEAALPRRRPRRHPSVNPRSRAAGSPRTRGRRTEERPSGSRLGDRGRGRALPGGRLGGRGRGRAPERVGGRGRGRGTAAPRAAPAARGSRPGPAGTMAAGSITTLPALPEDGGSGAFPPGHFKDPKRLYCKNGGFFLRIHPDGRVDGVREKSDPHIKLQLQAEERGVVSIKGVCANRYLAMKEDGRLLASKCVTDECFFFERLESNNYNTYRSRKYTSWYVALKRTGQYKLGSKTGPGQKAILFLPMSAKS

These are yes or no findings as the source states them, for the method shown. For some assays here: Binding calls can cover weak binding; strength is not graded here.

Experiment [1] addresses SDC4 overexpressed on HeLa S3 GPC1 knockout cells (UniProt P31431). The experiment is described as follows: flow cytometry on cells; 2 x 10^5 detached HeLa S3 cells with 5 µg recombinant FGF2-GFP in 400 µl PBS, 1 hr at RT; GFP intensity normalised to wild-type cells; only the binder purified. For orientation: Flow cytometry measures light scatter and fluorescence of single cells or particles in a stream.

Experiment [2] concerns the target T1, GPC1 overexpressed on HeLa S3 cells (UniProt P35052).
T1 sequence (chain, GPI anchor; heparan sulfate chains): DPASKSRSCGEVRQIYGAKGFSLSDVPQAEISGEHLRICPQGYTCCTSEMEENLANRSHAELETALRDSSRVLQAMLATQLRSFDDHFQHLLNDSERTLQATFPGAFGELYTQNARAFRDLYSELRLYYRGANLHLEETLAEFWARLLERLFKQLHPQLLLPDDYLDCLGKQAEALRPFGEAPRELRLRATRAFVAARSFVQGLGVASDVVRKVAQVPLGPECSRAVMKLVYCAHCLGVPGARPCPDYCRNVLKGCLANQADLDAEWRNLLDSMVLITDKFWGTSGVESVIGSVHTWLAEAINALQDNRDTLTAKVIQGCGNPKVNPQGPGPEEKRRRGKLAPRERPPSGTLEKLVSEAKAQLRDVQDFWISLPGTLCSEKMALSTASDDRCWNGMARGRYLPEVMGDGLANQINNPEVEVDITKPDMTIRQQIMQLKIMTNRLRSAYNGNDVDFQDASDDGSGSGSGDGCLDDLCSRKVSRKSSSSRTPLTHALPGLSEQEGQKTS
Described as above.

In the case of “His-FGF2-GFP (recombinant FGF2-GFP) (from UniProt P09038) (ligand)”, the binding entry is reported as “no binding (tested: 5 µg FGF2-GFP in 400 µl)” in experiment [1] and “binds” in experiment [2].
